Consider one molecule from article PMC9740379.

Results are given in words; binding and its absence hold for the method and conditions named. In cells and extracts the contact can be indirect. A yes stands for co-enrichment or nearness to the bait. Other partners may have been found. Where a sequence is shown, tags or fusion partners need not be part of it.

The target of the experiment is T1, CD229 (signaling lymphocytic activation molecule family 3), FLAG-tagged, overexpressed in MM cells (human) (UniProt Q9HBG7).
T1 sequence: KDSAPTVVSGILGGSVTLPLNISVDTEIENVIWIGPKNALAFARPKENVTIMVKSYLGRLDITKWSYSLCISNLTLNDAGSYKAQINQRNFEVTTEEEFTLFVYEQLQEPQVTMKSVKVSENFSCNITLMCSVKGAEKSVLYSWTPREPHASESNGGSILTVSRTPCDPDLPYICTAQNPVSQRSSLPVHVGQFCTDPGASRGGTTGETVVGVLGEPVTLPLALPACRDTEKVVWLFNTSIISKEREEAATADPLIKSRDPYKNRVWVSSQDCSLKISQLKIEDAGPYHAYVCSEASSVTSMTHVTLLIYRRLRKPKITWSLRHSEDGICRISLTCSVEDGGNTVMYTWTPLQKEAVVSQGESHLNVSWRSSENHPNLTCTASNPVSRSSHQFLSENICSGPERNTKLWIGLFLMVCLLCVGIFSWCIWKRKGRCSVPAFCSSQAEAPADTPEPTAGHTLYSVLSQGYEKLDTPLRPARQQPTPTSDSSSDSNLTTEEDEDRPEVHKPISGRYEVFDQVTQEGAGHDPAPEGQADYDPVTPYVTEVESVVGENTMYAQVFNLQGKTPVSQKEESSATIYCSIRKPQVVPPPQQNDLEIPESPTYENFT
The experiment can be described thus: affinity purification with mass spectrometry; Co-IP coupled with MS (Co-IP/MS) from CD229-OE cells; proteins separated by SDS-PAGE, gel bands digested with trypsin, Q-Exactive.

B1: RAS Protein Activator Like 3 (RASAL3) (protein, UniProt Q86YV0 1-1011)
chain: MDPPSPSRTSQTQPTATSPLTSYRWHTGGGGEKAAGGFRWGRFAGWGRALSHQEPMVSTQPAPRSIFRRVLSAPPKESRTSRLRLSKALWGRHKNPPPEPDPEPEQEAPELEPEPELEPPTPQIPEAPTPNVPVWDIGGFTLLDGKLVLLGGEEEGPRRPRVGSASSEGSIHVAMGNFRDPDRMPGKTEPETAGPNQVHNVRGLLKRLKEKKKARLEPRDGPPSALGSRESLATLSELDLGAERDVRIWPLHPSLLGEPHCFQVTWTGGSRCFSCRSAAERDRWIEDLRRQFQPTQDNVEREETWLSVWVHEAKGLPRAAAGAPGVRAELWLDGALLARTAPRAGPGQLFWAERFHFEALPPARRLSLRLRGLGPGSAVLGRVALALEELDAPRAPAAGLERWFPLLGAPAGAALRARIRARRLRVLPSERYKELAEFLTFHYARLCGALEPALPAQAKEELAAAMVRVLRATGRAQALVTDLGTAELARCGGREALLFRENTLATKAIDEYMKLVAQDYLQETLGQVVRRLCASTEDCEVDPSKCPASELPEHQARLRNSCEEVFETIIHSYDWFPAELGIVFSSWREACKERGSEVLGPRLVCASLFLRLLCPAILAPSLFGLAPDHPAPGPARTLTLIAKVIQNLANRAPFGEKEAYMGFMNSFLEEHGPAMQCFLDQVAMVDVDAAPSGYQGSGDLALQLAVLHAQLCTIFAELDQTTRDTLEPLPTILRAIEEGQPVLVSVPMRLPLPPAQVHSSLSAGEKPGFLAPRDLPKHTPLISKSQSLRSVRRSESWARPRPDEERPLRRPRPVQRTQSVPVRRPARRRQSAGPWPRPKGSLSMGPAPRARPWTRDSASLPRKPSVPWQRQMDQPQDRNQALGTHRPVNKLAELQCEVAALREEQKVLSRLVESLSTQIRALTEQQEQLRGQLQDLDSRLRAGSSEFDSEHNLTSNEGHSLKNLEHRLNEMERTQAQLRDAVQSLQLSPRTRGSWSQPQPLKAPCLNGDTT
Regarding B1, the binding entry is on record as “binds”.
